Measurements reported in the supplement of paper PMC4299490.

How the values were obtained:
[1] = tested on: human umbilical cord blood Lin-RholowCD34+CD38-CD45RA-CD49f+ HSC-enriched cells; assay: number of CD34- mature cells per well on day 7 (from 40 seeded cells); higher = more mature cell output; conditions: culture time: 7 days, basal cytokines: 100 ng/ml SCF + 50 ng/ml THPO + 100 ng/ml FLT3LG
Experimental: (§1)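 Forty human umbilical cord blood Lin-RholowCD34+CD38-CD45RA-CD49f+ HSC-enriched cells were cultured per well in serum-free medium with basal cytokines (100 ng/ml SCF, 50 ng/ml THPO, 100 ng/ml FLT3LG) plus one test ligand (recombinant protein or small-molecule inhibitor) at the stated concentration. On day 7, flow cytometry counted CD34+CD133+CD90+ HSC-enriched cells and CD34- mature cells; progenitors (CD34+ cells that are CD133- or CD90-) were calculated as total - HSC-enriched - mature. Values are absolute cell numbers per well, corrected for the 30 µl dead volume and averaged over experiments; they are not normalised to the basal-cytokine control, and they vary strongly between experiments. Concentrations are in ng/ml, except SR1, which is 0.75 µM.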

[2] = tested on: human umbilical cord blood Lin-RholowCD34+CD38-CD45RA-CD49f+ HSC-enriched cells; assay: number of CD34+CD133+CD90+ HSC-enriched cells per well on day 7 (from 40 seeded cells); higher = more HSC-enriched cell output; conditions: culture time: 7 days, basal cytokines: 100 ng/ml SCF + 50 ng/ml THPO + 100 ng/ml FLT3LG
Experimental: as §1

[3] = ligand concentration (ng/ml; SR1 in µM as written): 1
[4] = ligand concentration (ng/ml; SR1 in µM as written): 50
[5] = ligand concentration (ng/ml; SR1 in µM as written): 200
[6] = ligand concentration (ng/ml; SR1 in µM as written): 1000
[7] = ligand concentration (ng/ml; SR1 in µM as written): 25
[8] = ligand concentration (ng/ml; SR1 in µM as written): 100
[9] = ligand concentration (ng/ml; SR1 in µM as written): 10
[10] = ligand concentration (ng/ml; SR1 in µM as written): 150
[11] = ligand concentration (ng/ml; SR1 in µM as written): 20
[12] = ligand concentration (ng/ml; SR1 in µM as written): 250
[13] = ligand concentration (ng/ml; SR1 in µM as written): 0.1
[14] = ligand concentration (ng/ml; SR1 in µM as written): 5
[15] = ligand concentration (ng/ml; SR1 in µM as written): 300

Sequence | number [1, 3] | number [1, 4] | number [1, 5] | number [2, 3] | number [2, 4] | number [2, 5] | number [1, 8] | number [2, 8] | also measured
MFTIKLLLFIVPLVISSRIDQDNSSFDSLSPEPKSRFAMLDDVKILANGLLQLGHGLKDFVHKTKGQINDIFQKLNIFDQSFYDLSLQTSEIKEEEKELRRTTYKLQVKNEEVKNMSLELNSKLESLLEEKILLQQKVKYLEEQLTNLIQNQPETPEHPEVTSLKTFVEKQDNSIKDLLQTVEDQYKQLNQQHSQIKEIENQLRRTSIQEPTEISLSSKPRAPRTTPFLQLNEIRNVKHDGIPAECTTIYNRGEHTSGMYAIRPSNSQVFHVYCDVISGSPWTLIQHRIDGSQNFNETWENYKYGFGRLDGEFWLGLEKIYSIVKQSNYVLRIELEDWKDNKHYIEYSFYLGNHETNYTLHLVAITGNVPNAIPENKDLVFSTWDHKAKGHFNCPEGYSGGWWWHDECGENNLNGKYNKPRAKSKPERRRGLSWKSQNGRLYSIKSTKMLIHPTDSESFE | 324 ± 230 | 317 ± 190 | 332 ± 220 | 72.6 ± 39 | 92.6 ± 49 | 65.8 ± 22 |  |  | 
MGKGDPKKPRGKMSSYAFFVQTCREEHKKKHPDASVNFSEFSKKCSERWKTMSAKEKGKFEDMAKADKARYEREMKTYIPPKGETKKKFKDPNAPKRPPSAFFLFCSEYRPKIKGEHPGLSIGDVAKKLGEMWNNTAADDKQPYEKKAAKLKEKYEKDIAAYRAKGKPDAAKKGVVKAEKSKKKKEEEEDEEDEEDEEEEEDEEDEDEEEDDDDE |  | 375 ± 220 | 389 ± 260 |  | 68.4 ± 32 | 72.7 ± 30 |  |  | number [1, 6]: 488 ± 350; number [2, 6]: 75.6 ± 29
MHLSQLLACALLLTLLSLRPSEAKPGAPPKVPRTPPAEELAEPQAAGGGQKKGDKAPGGGGANLKGDRSRLLRDLRVDTKSRAAWARLLQEHPNARKYKGANKKGLSKGCFGLKLDRIGSMSGLGC |  | 204 ± 190 | 297 ± 290 |  | 103 ± 25 | 85.8 ± 35 |  |  | number [1, 6]: 331 ± 230; number [2, 6]: 94.8 ± 36
MIPGNRMLMVVLLCQVLLGGASHASLIPETGKKKVAEIQGHAGGRRSGQSHELLRDFEATLLQMFGLRRRPQPSKSAVIPDYMRDLYRLQSGEEEEEQIHSTGLEYPERPASRANTVRSFHHEEHLENIPGTSENSAFRFLFNLSSIPENEVISSAELRLFREQVDQGPDWERGFHRINIYEVMKPPAEVVPGHLITRLLDTRLVHHNVTRWETFDVSPAVLRWTREKQPNYGLAIEVTHLHQTRTHQGQHVRISRSLPQGSGNWAQLRPLLVTFGHDGRGHALTRRRRAKRSPKHHSQRARKKNKNCRRHSLYVDFSDVGWNDWIVAPPGYQAFYCHGDCPFPLADHLNSTNHAIVQTLVNSVNSSIPKACCVPTELSAISMLYLDEYDKVVLKNYQEMVVEGCGCR | 340 ± 200 |  |  | 90.8 ± 56 |  |  | 400 ± 340 | 110 ± 83 | number [1, 7]: 541 ± 560; number [2, 7]: 112 ± 71
MNCVCRLVLVVLSLWPDTAVAPGPPPGPPRVSPDPRAELDSTVLLTRSLLADTRQLAAQLRDKFPADGDHNLDSLPTLAMSAGALGALQLPGVLTRLRADLLSYLRHVQWLRRAGGSSLKTLEPELGTLQARLDRLLRRLQLLMSRLALPQPPPDPPAPPLAPPSSAWGGIRAAHAILGGLHLTLDWAVRGLLLLKTRL | 290 ± 460 |  |  | 69.3 ± 55 |  |  |  |  | number [1, 9]: 255 ± 320; number [1, 10]: 489 ± 550; number [2, 9]: 62.1 ± 53; number [2, 10]: 151 ± 150
MNRKARRCLGHLFLSLGMVYLRIGGFSSVVALGASIICNKIPGLAPRQRAICQSRPDAIIVIGEGSQMGLDECQFQFRNGRWNCSALGERTVFGKELKVGSREAAFTYAIIAAGVAHAITAACTQGNLSDCGCDKEKQGQYHRDEGWKWGGCSADIRYGIGFAKVFVDAREIKQNARTLMNLHNNEAGRKILEENMKLECKCHGVSGSCTTKTCWTTLPQFRELGYVLKDKYNEAVHVEPVRASRNKRPTFLKIKKPLSYRKPMDTDLVYIEKSPNYCEEDPVTGSVGTQGRACNKTAPQASGCDLMCCGRGYNTHQYARVWQCNCKFHWCCYVKCNTCSERTEMYTCK |  |  |  |  |  |  | 351 ± 220 | 97.5 ± 66 | number [1, 11]: 446 ± 300; number [1, 12]: 308 ± 210; number [2, 11]: 104 ± 64; number [2, 12]: 98.8 ± 70
MPLLWLRGFLLASCWIIVRSSPTPGSEGHSAAPDCPSCALAALPKDVPNSQPEMVEAVKKHILNMLHLKKRPDVTQPVPKAALLNAIRKLHVGKVGENGYVEIEDDIGRRAEMNELMEQTSEIITFAESGTARKTLHFEISKEGSDLSVVERAEVWLFLKVPKANRTRTKVTIRLFQQQKHPQGSLDTGEEAEEVGLKGERSELLLSEKVVDARKSTWHVFPVSSSIQRLLDQGKSSLDVRIACEQCQESGASLVLLGKKKKKEEEGEGKKKGGGEGGAGADEEKEQSHRPFLMLQARQSEDHPHRRRRRGLECDGKVNICCKKQFFVSFKDIGWNDWIIAPSGYHANYCEGECPSHIAGTSGSSLSFHSTVINHYRMRGHSPFANLKSCCVPTKLRPMSMLYYDDGQNIIKKDIQNMIVEECGCS | 300 ± 250 |  |  | 97.6 ± 73 |  |  | 325 ± 170 | 72.5 ± 38 | number [1, 9]: 449 ± 140; number [2, 9]: 65 ± 33
MQHRGFLLLTLLALLALTSAVAKKKDKVKKGGPGSECAEWAWGPCTPSSKDCGVGFREGTCGAQTQRIRCRVPCNWKKEFGADCKYKFENWGACDGGTGTKVRQGTLKKARYNAQCQETIRVTKPCTPKTKAKAKAKKGKGKD | 272 ± 140 | 751 ± 720 | 332 ± 240 | 152 ± 100 | 138 ± 77 | 136 ± 80 |  |  | 
MSERKEGRGKGKGKKKERGSGKKPESAAGSQSPALPPRLKEMKSQESAAGSKLVLRCETSSEYSSLRFKWFKNGNELNRKNKPQNIKIQKKPGKSELRINKASLADSGEYMCKVISKLGNDSASANITIVESNEIITGMPASTEGAYVSSESPIRISVSTEGANTSSSTSTSTTGTSHLVKCAEKEKTFCVNGGECFMVKDLSNPSRYLCKCQPGFTGARCTENVPMKVQNQEKAEELYQKRVLTITGICIALLVVGIMCVVAYCKTKKQRKKLHDRLRQSLRSERNNMMNIANGPHHPNPPPENVQLVNQYVSKNVISSEHIVEREAETSFSTSHYTSTAHHSTTVTQTPSHSWSNGHTESILSESHSVIVMSSVENSRHSSPTGGPRGRLNGTGGPRECNSFLRHARETPDSYRDSPHSERYVSAMTTPARMSPVDFHTPSSPKSPPSEMSPPVSSMTVSMPSMAVSPFMEEERPLLLVTPPRLREKKFDHHPQQFSSFHHNPAHDSNSLPASPLRIVEDEEYETTQEYEPAQEPVKKLANSRRAKRTKPNGHIANRLEVDSNTSSQSSNSESETEDERVGEDTPFLGIQNPLAASLEATPAFRLADSRTNPAGRFSTQEEIQARLSSVIANQDPIAV |  |  |  |  |  |  | 226 ± 56 | 138 ± 78 | number [1, 13]: 282 ± 210; number [1, 14]: 267 ± 180; number [2, 13]: 146 ± 59; number [2, 14]: 144 ± 53
MSPRSCLRSLRLLVFAVFSAAASNWLYLAKLSSVGSISEEETCEKLKGLIQRQVQMCKRNLEVMDSVRRGAQLAIEECQYQFRNRRWNCSTLDSLPVFGKVVTQGTREAAFVYAISSAGVAFAVTRACSSGELEKCGCDRTVHGVSPQGFQWSGCSDNIAYGVAFSQSFVDVRERSKGASSSRALMNLHNNEAGRKAILTHMRVECKCHGVSGSCEVKTCWRAVPPFRQVGHALKEKFDGATEVEPRRVGSSRALVPRNAQFKPHTDEDLVYLEPSPDFCEQDMRSGVLGTRGRTCNKTSKAIDGCELLCCGRGFHTAQVELAERCSCKFHWCCFVKCRQCQRLVELHTCR |  |  |  |  |  |  | 829 ± 470 | 186 ± 57 | number [1, 14]: 911 ± 580; number [1, 15]: 1010 ± 600; number [2, 14]: 151 ± 30; number [2, 15]: 168 ± 81
MSRLPVLLLLQLLVRPGLQAPMTQTTPLKTSWVNCSNMIDEIITHLKQPPLPLLDFNNLNGEDQDILMENNLRRPNLEAFNRAVKSLQNASAIESILKNLLPCLPLATAAPTRHPIHIKDGDWNEFRRKLTFYLKTLENAQAQQTTLSLAIF | 1350 ± 400 |  |  | 157 ± 160 |  |  | 3050 ± 1200 | 139 ± 130 | number [1, 9]: 2510 ± 1100; number [2, 9]: 219 ± 220

± gives the standard deviation of the averaged measurements. Single values of this set are uncertain.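 Each ligand was tested at three doses, and effects were judged against wells given only the basal cytokines. TGFB1 at 10 ng/ml served as a negative control and SR1 as a positive control for HSC expansion.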
